These are yes or no findings as the source states them, for the method shown. In cells and extracts the contact can be indirect. Some results given as binding are weak or reduced against the parent protein; the word gives no strength.
B1: Nup153 (protein, UniProt E9Q3G8 1-1462)
chain: MASEAGGIGGGGGGGKIRTRRCHQGPVKPYQQGRPQHQGILSRVTESVKNIVPGWLQRYFNKSENACSCSPDADEVPPWPENREDEHAIYADENTNTDDGRITPDPAGSNTEEPSTTSTASNYPDVLTRPSLHRSHLNFSVLESPALHCQPSTSSAFPIGSSGFSLVKEIKDSTSQHDDDNISTTSGFSSRASEKDIAVSKNTSLPPLWSPEAERSHSLSQHTAISSKKPAFNLSAFGTLSTSLGNSSILKTSQLGDSPFYPGKTTYGGAAAAVRQNKVRSTPYQAPVRRQMKAKQLNAQSYGVTSSTARRILQSLEKMSSPLADAKRIPSAVSSPLNSPLDRSGIDNTVFQAKKEKVDSQYPPVQRLMTPKPVSIATNRTVYFKPSLTPSGDLRKTNQRIDKKNSTVDEKSISRQNREQESGFSYPNFSIPAANGLSSGVGGGGGKMRRERTHFVAPKPPENEEVEAPLLPQISLPISSSSLPTFSFSSPVTSASPSPVSSSQPLPNKVQMTSLGSTGSPVFTFSSPIVKSTQAAVLPPASIGFTFSVPLAKTEFSGSNSSSETVLSSSAQDITAVNSSSYKKRSAPCEDPFTPAKILREGSVLDILKTPGFASPKVDSPALQPTTTSSIVYTRPAISTFSSSGIEYGESLKAGSSWQCDTCLLQNKVTDNKCIACQAAKLPLKETAKQTGTGTPSKSDKPASTSGTGFGDKFKPAIGTWDCDTCLVQNKPEAVKCVACETPKPGTGVKRALTLTVASESPVTASSSTTVTTGTLGFGDKFKRPVGSWECPVCCVCNKAEDNRCVSCTSEKPGLVSASSSSPAPVSLSSGGCLGLDKFKKPEGSWDCEVCLVQNKADSAKCIACESAKPGTKSEFKGFGTSSSLNPAPSAFKFGIPSSSSGLSQTLTSTGNFKFGDQGGFKLGTSSDSGSTNTMNTNFKFSKPTGDFKFGVLSDSKPEEVKNDNKNDNFQFGSSSGLTNPASSAPFQFGVSTLGQQEKKEELPKSSPAGFSFGAGVNNPPNAAIDTTATSENKSGFNFGTLDTKSVSVTPFTYKTTEAKKEDAPATKGGFTFGKVGSSSLPSSSMFVLGRTEEKQQEPVTSTSLVFGKKADSEEPKCQPVFSFGNSEQTKDESSKPTFSFSVAKPSGKESEQLAKATFAFGNQTNTTTDQGAAKPVFSFLNSSSSSSSAPATSSSGGIFGSSTSSSNPPVAAFVFGQASNPVSSSAFGNAAESSTSQSLLFPQESEPATTSSTAPAASPFVFGTGASSNSVSSGFTFGATTTSSSSGSSFVFGTGHSAPSASPAFGANQTPTFGQSQGASQPNPPSFGSISSSTALFSAGSQPVPPPIFGTVSSSSQPPVFGQQPSQSAFGSGTANASSVFQFGSSTTNFNFTNNNPSGVFTFGASPSTPAASAQPSGSGVFSFSQSPASFTVGSNGKNMFSSSGTSVSGRKIKTAVRRKK
B2: Atf2 (protein, UniProt P16951 1-487)
chain: MSDDKPFLCTAPGCGQRFTNEDHLAVHKHKHEMTLKFGPARNDSVIVADQTPTPTRFLKNCEEVGLFNELASPFENEFKKASEDDIKKMPLDLSPLATPIIRSKIEEPSVVETTHQDSPLPHPESTTSDEKEVPLAQTAQPTSAIVRPASLQVPNVLLTSSDSSVIIQQAVPSPTSSTVITQAPSSNRPIVPVPGPFPLLLHLPNGQTMPVAIPASITSSNVHVPAAVPLVRPVTMVPSVPGIPGPSSPQPVQSEAKMRLKAALTQQHPPVTNGDTVKGHGSGLVRTQSEESRPQSLQQPATSTTETPASPAHTTPQTQNTSGRRRRAANEDPDEKRRKFLERNRAAASRCRQKRKVWVQSLEKKAEDLSSLNGQLQSEVTLLRNEVAQLKQLLLAHKDCPVTAMQKKSGYHTADKDDSSEDLSVPSSPHTEAIQHSSVSTSNGVSSTSKAEAVATSVLTQMADQSTEPALSQIVMAPPSQAQPSGS

By UniProt entry, the sequences of proteins in these tests, tags left out.
UniProt Q3TKT4: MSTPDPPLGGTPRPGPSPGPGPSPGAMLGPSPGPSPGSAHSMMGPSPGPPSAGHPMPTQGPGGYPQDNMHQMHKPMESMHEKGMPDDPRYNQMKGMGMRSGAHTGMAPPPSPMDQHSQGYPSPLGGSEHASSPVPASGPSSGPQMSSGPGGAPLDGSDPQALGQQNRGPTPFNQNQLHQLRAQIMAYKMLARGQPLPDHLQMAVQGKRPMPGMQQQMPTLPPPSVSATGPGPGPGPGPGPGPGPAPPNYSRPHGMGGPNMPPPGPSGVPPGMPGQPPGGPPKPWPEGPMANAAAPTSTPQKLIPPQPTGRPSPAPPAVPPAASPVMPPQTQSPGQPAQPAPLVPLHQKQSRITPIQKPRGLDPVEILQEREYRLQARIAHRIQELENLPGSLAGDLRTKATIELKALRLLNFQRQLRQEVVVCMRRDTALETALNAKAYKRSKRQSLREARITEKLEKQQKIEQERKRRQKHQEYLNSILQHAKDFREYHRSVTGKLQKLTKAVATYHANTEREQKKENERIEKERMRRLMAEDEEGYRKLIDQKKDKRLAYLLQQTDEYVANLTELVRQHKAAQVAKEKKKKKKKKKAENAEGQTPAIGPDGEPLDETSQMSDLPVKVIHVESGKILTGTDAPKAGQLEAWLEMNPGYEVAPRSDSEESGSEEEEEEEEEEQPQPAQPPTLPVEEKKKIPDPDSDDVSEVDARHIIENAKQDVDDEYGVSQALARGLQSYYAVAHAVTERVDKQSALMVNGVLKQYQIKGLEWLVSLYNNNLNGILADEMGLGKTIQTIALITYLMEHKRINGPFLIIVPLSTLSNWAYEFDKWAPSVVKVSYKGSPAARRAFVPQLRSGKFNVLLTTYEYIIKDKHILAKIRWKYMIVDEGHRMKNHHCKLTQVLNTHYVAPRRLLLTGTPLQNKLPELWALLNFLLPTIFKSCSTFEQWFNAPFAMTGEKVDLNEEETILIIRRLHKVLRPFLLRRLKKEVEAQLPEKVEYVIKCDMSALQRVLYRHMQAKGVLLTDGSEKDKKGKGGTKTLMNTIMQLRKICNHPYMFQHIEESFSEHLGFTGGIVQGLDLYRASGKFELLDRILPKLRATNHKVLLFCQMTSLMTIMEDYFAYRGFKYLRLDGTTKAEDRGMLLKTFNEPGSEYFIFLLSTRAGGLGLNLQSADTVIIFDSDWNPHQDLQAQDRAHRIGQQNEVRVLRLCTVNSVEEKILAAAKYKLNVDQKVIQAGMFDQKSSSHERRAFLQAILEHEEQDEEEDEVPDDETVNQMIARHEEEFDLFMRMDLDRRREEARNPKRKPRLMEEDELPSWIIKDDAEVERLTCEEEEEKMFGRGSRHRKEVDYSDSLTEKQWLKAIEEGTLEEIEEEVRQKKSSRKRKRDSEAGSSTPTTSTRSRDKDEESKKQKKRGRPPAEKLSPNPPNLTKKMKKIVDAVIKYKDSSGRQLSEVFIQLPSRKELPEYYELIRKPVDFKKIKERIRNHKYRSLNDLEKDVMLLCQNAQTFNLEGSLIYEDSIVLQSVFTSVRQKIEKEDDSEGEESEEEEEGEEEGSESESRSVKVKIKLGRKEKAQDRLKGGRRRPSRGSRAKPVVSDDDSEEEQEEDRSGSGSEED
UniProt Q9DBR0: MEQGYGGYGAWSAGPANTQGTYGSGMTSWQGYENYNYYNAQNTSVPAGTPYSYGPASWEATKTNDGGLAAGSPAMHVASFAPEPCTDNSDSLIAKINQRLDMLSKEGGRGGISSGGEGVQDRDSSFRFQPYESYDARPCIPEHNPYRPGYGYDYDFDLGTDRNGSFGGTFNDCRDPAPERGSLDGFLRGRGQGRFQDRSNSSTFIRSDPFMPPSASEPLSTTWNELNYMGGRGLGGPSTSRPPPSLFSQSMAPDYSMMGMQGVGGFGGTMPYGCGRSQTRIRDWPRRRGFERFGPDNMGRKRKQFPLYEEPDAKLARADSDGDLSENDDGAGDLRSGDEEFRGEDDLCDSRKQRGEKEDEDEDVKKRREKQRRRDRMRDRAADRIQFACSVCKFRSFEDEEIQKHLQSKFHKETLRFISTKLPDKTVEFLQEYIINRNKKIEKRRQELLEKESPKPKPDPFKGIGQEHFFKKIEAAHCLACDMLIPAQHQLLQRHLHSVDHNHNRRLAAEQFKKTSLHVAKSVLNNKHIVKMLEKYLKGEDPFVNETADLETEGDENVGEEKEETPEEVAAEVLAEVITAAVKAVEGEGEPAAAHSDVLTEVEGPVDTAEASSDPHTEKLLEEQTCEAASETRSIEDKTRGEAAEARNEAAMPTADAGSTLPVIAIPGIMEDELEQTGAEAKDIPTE

target: T1, Ambra1 (Activating Molecule in Beclin1-Regulated Autophagy) (mouse (endogenous in SCC cells)) (UniProt A2AH22); test: co-IP
T1 sequence: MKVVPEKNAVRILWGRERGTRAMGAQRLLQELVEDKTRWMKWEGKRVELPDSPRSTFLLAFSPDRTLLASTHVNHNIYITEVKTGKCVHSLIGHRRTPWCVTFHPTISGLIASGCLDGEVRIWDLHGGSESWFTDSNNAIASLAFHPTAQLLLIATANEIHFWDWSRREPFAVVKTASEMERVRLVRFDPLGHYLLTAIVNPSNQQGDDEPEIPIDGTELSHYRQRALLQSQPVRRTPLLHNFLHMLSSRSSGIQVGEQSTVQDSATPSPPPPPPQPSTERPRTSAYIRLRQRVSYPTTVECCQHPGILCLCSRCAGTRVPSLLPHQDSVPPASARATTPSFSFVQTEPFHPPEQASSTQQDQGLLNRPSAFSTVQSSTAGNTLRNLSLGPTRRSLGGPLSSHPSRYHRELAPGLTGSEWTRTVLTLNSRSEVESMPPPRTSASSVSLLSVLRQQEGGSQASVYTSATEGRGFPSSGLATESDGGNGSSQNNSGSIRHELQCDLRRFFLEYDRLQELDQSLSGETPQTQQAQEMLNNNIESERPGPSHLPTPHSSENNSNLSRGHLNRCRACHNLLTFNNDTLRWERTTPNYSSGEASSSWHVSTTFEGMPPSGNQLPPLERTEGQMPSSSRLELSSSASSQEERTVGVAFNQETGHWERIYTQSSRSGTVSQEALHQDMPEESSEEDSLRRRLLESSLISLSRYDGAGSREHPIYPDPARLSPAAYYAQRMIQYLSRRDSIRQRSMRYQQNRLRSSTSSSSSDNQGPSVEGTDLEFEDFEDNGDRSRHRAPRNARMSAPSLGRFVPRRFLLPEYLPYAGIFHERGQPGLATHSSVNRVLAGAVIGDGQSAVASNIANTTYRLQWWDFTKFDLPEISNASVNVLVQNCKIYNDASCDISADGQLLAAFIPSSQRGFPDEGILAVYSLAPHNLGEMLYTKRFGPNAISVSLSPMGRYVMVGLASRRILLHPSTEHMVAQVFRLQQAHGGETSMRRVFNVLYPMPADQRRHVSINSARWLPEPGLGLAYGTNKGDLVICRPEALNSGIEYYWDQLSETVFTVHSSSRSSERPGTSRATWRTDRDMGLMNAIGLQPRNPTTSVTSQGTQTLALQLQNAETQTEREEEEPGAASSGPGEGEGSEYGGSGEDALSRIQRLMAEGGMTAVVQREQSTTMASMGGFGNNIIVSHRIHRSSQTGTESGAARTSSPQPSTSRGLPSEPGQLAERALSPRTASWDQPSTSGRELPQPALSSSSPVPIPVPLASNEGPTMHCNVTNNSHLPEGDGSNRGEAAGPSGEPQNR

Question: With “SMARCA4 (Brg1) (from UniProt Q3TKT4 1-1613)” as the molecule, how does the binding read?
Answer: The binding was “binds”.

Question: Which binding does the source give for “Akap8 (A kinase anchor protein 8) (from UniProt Q9DBR0 1-687)” here?
Answer: Its binding is “binds”.

Question: With B1 as the molecule, how does the binding read?
Answer: Its binding is “binds”.

Question: B2 was tested. Which binding did it give?
Answer: Its binding is “binds”.

— article doi:10.1101/2020.01.08.899328
